Assay results published in the supplement of paper PMC4635364.
Structures can show the parent of a compound that is named as a salt. The list shows a part of the results. This data set is noisy: repeats of one test often differ as much as different tests do.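 Cells: ReNCell VM human fetal ventral-midbrain neural progenitors, differentiated mitogen-free. Blinded raters compared doublecortin-stained (early neurons) or tyrosine hydroxylase-stained (dopaminergic neurons) images with untreated wells, where 0 means no change. After repeats and both raters were averaged, compounds scoring 2 or above became hits for retesting.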

Legend:
[1] = tested on: ReNCell VM; test: neuronal differentiation score (DCX+ cell fraction vs untreated, manual image score) (score (-3 to 3)); higher = more neuronal differentiation; settings: 2 uM, 2 weeks
[2] = tested on: ReNCell VM; test: dopaminergic neuron differentiation score (TH+ cell fraction vs untreated, manual image score) (score (0 to 3)); higher = more TH+ dopaminergic neuron differentiation; settings: 2 uM, 4 weeks, BDNF 10 ng/ml + GDNF 10 ng/ml

CN=c1nc(-c2ccccc2)n(-c2ccccc2)s1
inactive: neuronal differentiation score ([1]; library: LOPAC) 1 | neuronal differentiation score ([1]; library: Tocriscreen) -3 | dopaminergic neuron differentiation score ([2]; library: LOPAC) 0 | dopaminergic neuron differentiation score ([2]; library: Tocriscreen) 0

O=C(O)C1=CCNCC1 [Isoguvacine hydrochloride]
inactive: neuronal differentiation score ([1]; library: LOPAC) 0 | neuronal differentiation score ([1]; library: Tocriscreen) 0 | dopaminergic neuron differentiation score ([2]; library: LOPAC) 0 | dopaminergic neuron differentiation score ([2]; library: Tocriscreen) 0

CN(C(=O)CCCOc1ccc2[nH]c(=O)ccc2c1)C1CCCCC1 [Cilostamide]
active: dopaminergic neuron differentiation score ([2]; library: LOPAC) 3
inactive: neuronal differentiation score ([1]; library: LOPAC) 0 | neuronal differentiation score ([1]; library: Tocriscreen) 0 | dopaminergic neuron differentiation score ([2]; library: Tocriscreen) 1

NC(=O)OCC(COC(N)=O)c1ccccc1 [Felbamate]
inactive: neuronal differentiation score ([1]; library: LOPAC) 0 | neuronal differentiation score ([1]; library: Tocriscreen) 0 | dopaminergic neuron differentiation score ([2]; library: LOPAC) 0 | dopaminergic neuron differentiation score ([2]; library: Tocriscreen) 0

CC[N+](CC)(CC)CCOc1cccc(OCC[N+](CC)(CC)CC)c1OCC[N+](CC)(CC)CC [Gallamine triethiodide]
inactive: neuronal differentiation score ([1]; library: LOPAC) 0 | neuronal differentiation score ([1]; library: Prestwick) 0 | dopaminergic neuron differentiation score ([2]; library: LOPAC) 0 | dopaminergic neuron differentiation score ([2]; library: Prestwick) 0

Clc1ccc(Cn2c(CN3CCCC3)nc3ccccc32)cc1 [Clemizole hydrochloride]
inactive: neuronal differentiation score ([1]; library: LOPAC) 1 | neuronal differentiation score ([1]; library: Prestwick) 1 | dopaminergic neuron differentiation score ([2]; library: LOPAC) 1 | dopaminergic neuron differentiation score ([2]; library: Prestwick) 0

COc1cc2c(CCNC(C)=O)c[nH]c2cc1Cl [6-Chloromelatonin]
inactive: neuronal differentiation score ([1]; library: LOPAC) 0 | neuronal differentiation score ([1]; library: Tocriscreen) 0 | dopaminergic neuron differentiation score ([2]; library: LOPAC) 0 | dopaminergic neuron differentiation score ([2]; library: Tocriscreen) 0

COc1cc(C(=O)OCCCN2CCCN(CCCOC(=O)c3cc(OC)c(OC)c(OC)c3)CC2)cc(OC)c1OC [Dilazep dihydrochloride]
inactive: neuronal differentiation score ([1]; library: Prestwick) 0 | neuronal differentiation score ([1]; library: Tocriscreen) 0 | dopaminergic neuron differentiation score ([2]; library: Prestwick) 1 | dopaminergic neuron differentiation score ([2]; library: Tocriscreen) 1

O=C1Cc2c([nH]c3ccc(Br)cc23)-c2ccccc2N1 [Kenpaullone]
active: neuronal differentiation score ([1]; library: LOPAC) 2 | neuronal differentiation score ([1]; library: Tocriscreen) 3
inactive: dopaminergic neuron differentiation score ([2]; library: LOPAC) 0 | dopaminergic neuron differentiation score ([2]; library: Tocriscreen) 0
